From PMC6946564
Results are given in words; binding and its absence hold for the method and conditions named. Some entries that bind do so weakly or less than the wild type.

Target: APOBEC3G (A3G), wild type, Q9HC16
Experiment: optical tweezers (ssDNA extension at constant force); single 8.1 knt ssDNA tethered between two beads and held at a constant force (10-80 pN); 50 nM A3G flowed in for 100 s, then protein-free buffer; 10 mM HEPES, 50 mM Na+, pH 7.5 (also 50 mM Na+/10 mM Mg and 150 mM Na+/1 mM Mg at 20 pN); oligomerization of ssDNA-bound A3G is inferred from the lack of dissociation after free protein is removed; both purified
Details: remark: other sources report otherwise

- binding: binds
B1: APOBEC3G (A3G), wild type, Q9HC16 1-384 (enzyme)
chain: MKPHFRNTVERMYRDTFSYNFYNRPILSRRNTVWLCYEVKTKGPSRPPLDAKIFRGQVYSELKYHPEMRFFHWFSKWRKLHRDQEYEVTWYISWSPCTKCTRDMATFLAEDPKVTLTIFVARLYYFWDPDYQEALRSLCQKRDGPRATMKIMNYDEFQHCWSKFVYSQRELFEPWNNLPKYYILLHIMLGEILRHSMDPPTFTFNFNNEPWVRGRHETYLCYEVERMHNDTWVLLNQRRGFLCNQAPHKHGFLEGRHAELCFLDVIPFWKLDLDQDYRVTCFTSWSPCFSCAQEMAKFISKNKHVSLCIFTARIYDDQGRCQEGLRTLAEAGAKISIMTYSEFKHCWDTFVDHQGCPFQPWDGLDEHSQDLSGRLRAILQNQEN
